The list shows a part of the results.

The chains behind the UniProt entries cited, without tags or fusion partners. Where a name states a change or a piece, a line headed by the entry shows the natural chain unless it says otherwise.
UniProt H3BUF6: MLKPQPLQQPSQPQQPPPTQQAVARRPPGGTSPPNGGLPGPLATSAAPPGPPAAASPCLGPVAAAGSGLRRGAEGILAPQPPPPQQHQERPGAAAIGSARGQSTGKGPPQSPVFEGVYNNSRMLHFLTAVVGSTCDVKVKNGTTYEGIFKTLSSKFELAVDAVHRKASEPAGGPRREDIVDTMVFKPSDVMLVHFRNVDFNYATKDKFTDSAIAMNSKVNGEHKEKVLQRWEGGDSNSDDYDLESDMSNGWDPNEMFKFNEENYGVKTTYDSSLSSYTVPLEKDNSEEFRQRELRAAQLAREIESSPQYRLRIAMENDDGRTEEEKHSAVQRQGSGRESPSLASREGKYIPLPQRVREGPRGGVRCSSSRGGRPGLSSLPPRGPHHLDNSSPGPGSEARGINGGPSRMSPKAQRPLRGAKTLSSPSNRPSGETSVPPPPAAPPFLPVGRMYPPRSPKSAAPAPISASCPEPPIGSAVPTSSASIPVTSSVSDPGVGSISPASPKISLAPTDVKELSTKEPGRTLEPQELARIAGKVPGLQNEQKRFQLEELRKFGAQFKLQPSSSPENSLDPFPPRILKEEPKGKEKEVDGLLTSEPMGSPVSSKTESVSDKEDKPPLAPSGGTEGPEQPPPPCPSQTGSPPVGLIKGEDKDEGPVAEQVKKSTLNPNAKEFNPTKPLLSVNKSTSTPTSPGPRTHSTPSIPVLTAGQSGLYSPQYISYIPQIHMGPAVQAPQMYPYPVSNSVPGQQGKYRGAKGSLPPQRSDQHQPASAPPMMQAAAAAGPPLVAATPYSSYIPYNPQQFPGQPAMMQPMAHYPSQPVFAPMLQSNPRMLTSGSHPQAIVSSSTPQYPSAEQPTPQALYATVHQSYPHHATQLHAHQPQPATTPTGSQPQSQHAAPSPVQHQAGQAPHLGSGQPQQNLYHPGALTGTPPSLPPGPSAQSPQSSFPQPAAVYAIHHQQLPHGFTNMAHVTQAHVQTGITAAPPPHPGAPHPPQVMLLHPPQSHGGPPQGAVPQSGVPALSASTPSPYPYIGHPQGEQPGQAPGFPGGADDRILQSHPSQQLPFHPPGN
UniProt Q9BQE9, whole entry, looked up: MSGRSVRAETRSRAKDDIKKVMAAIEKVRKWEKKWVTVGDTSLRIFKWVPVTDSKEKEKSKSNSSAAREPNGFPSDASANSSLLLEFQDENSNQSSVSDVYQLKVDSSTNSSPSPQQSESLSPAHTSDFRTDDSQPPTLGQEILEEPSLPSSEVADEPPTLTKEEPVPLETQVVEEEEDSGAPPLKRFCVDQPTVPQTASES
UniProt Q7Z7M8: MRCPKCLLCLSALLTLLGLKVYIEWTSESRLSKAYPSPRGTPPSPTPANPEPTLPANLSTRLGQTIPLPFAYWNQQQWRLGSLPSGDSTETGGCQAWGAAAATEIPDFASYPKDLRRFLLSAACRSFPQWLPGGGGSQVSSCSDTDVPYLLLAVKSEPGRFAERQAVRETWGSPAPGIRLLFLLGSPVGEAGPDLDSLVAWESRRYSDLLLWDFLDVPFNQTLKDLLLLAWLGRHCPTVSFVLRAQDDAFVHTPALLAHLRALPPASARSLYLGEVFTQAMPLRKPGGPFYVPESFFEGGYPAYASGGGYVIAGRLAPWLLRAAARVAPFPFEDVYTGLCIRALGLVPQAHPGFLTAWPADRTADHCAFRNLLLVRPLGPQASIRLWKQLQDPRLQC
UniProt P61769, whole entry, looked up: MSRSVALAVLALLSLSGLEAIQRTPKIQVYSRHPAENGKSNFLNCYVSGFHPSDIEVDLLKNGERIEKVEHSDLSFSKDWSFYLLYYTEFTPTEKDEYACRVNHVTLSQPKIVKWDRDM
UniProt Q9NYM9: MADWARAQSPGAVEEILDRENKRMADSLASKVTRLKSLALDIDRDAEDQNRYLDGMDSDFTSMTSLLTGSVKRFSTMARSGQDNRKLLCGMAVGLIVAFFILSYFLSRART
UniProt Q6PGQ7, whole entry, looked up: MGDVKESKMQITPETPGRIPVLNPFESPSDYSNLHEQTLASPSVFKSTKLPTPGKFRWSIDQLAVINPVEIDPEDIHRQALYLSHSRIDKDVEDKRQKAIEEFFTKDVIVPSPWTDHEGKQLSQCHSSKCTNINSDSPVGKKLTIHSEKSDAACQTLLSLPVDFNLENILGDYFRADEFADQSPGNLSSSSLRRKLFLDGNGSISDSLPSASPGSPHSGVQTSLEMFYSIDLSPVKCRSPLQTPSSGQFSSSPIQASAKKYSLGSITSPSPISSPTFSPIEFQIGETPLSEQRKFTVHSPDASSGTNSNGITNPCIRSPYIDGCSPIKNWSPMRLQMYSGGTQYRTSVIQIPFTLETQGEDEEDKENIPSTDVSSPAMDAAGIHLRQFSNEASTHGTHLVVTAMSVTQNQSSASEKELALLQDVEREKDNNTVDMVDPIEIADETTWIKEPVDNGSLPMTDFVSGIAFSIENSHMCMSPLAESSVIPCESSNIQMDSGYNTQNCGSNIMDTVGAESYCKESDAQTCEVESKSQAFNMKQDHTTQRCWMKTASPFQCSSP
UniProt Q9H7T9: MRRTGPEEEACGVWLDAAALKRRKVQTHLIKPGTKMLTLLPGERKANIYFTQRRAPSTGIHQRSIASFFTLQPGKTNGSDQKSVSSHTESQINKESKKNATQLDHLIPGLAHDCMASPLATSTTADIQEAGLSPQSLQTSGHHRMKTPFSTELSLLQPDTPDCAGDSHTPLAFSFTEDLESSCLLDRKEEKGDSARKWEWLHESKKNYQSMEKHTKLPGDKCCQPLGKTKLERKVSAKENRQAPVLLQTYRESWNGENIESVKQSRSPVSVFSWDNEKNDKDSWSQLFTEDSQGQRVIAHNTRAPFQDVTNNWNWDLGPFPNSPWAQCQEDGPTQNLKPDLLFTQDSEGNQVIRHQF
UniProt Q9H2G9: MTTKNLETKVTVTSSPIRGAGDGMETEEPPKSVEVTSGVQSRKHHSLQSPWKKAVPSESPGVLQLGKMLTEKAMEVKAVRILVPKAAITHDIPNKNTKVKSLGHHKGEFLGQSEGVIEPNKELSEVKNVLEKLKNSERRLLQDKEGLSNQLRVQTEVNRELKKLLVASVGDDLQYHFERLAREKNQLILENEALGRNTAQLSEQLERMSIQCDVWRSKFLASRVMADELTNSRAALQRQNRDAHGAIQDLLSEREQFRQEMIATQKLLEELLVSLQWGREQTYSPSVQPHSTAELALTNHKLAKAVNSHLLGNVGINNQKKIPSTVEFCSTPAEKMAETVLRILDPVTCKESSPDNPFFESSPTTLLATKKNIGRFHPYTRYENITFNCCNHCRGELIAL
UniProt O75363: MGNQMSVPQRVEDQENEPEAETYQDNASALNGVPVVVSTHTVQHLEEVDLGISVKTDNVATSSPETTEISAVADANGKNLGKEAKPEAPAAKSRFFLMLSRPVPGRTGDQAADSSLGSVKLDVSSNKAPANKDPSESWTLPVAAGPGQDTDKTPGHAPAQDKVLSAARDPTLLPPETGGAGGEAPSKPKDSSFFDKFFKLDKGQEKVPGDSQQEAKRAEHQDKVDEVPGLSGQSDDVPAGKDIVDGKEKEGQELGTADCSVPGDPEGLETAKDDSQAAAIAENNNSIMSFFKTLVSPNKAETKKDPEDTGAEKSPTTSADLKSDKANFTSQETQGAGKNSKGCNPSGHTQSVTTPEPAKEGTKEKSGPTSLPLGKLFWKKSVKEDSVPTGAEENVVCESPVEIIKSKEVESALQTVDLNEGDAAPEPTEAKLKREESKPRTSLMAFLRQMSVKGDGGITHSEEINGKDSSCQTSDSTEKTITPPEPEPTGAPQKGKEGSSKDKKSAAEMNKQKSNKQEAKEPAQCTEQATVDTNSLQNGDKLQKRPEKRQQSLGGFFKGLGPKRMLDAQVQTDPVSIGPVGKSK
UniProt P46100: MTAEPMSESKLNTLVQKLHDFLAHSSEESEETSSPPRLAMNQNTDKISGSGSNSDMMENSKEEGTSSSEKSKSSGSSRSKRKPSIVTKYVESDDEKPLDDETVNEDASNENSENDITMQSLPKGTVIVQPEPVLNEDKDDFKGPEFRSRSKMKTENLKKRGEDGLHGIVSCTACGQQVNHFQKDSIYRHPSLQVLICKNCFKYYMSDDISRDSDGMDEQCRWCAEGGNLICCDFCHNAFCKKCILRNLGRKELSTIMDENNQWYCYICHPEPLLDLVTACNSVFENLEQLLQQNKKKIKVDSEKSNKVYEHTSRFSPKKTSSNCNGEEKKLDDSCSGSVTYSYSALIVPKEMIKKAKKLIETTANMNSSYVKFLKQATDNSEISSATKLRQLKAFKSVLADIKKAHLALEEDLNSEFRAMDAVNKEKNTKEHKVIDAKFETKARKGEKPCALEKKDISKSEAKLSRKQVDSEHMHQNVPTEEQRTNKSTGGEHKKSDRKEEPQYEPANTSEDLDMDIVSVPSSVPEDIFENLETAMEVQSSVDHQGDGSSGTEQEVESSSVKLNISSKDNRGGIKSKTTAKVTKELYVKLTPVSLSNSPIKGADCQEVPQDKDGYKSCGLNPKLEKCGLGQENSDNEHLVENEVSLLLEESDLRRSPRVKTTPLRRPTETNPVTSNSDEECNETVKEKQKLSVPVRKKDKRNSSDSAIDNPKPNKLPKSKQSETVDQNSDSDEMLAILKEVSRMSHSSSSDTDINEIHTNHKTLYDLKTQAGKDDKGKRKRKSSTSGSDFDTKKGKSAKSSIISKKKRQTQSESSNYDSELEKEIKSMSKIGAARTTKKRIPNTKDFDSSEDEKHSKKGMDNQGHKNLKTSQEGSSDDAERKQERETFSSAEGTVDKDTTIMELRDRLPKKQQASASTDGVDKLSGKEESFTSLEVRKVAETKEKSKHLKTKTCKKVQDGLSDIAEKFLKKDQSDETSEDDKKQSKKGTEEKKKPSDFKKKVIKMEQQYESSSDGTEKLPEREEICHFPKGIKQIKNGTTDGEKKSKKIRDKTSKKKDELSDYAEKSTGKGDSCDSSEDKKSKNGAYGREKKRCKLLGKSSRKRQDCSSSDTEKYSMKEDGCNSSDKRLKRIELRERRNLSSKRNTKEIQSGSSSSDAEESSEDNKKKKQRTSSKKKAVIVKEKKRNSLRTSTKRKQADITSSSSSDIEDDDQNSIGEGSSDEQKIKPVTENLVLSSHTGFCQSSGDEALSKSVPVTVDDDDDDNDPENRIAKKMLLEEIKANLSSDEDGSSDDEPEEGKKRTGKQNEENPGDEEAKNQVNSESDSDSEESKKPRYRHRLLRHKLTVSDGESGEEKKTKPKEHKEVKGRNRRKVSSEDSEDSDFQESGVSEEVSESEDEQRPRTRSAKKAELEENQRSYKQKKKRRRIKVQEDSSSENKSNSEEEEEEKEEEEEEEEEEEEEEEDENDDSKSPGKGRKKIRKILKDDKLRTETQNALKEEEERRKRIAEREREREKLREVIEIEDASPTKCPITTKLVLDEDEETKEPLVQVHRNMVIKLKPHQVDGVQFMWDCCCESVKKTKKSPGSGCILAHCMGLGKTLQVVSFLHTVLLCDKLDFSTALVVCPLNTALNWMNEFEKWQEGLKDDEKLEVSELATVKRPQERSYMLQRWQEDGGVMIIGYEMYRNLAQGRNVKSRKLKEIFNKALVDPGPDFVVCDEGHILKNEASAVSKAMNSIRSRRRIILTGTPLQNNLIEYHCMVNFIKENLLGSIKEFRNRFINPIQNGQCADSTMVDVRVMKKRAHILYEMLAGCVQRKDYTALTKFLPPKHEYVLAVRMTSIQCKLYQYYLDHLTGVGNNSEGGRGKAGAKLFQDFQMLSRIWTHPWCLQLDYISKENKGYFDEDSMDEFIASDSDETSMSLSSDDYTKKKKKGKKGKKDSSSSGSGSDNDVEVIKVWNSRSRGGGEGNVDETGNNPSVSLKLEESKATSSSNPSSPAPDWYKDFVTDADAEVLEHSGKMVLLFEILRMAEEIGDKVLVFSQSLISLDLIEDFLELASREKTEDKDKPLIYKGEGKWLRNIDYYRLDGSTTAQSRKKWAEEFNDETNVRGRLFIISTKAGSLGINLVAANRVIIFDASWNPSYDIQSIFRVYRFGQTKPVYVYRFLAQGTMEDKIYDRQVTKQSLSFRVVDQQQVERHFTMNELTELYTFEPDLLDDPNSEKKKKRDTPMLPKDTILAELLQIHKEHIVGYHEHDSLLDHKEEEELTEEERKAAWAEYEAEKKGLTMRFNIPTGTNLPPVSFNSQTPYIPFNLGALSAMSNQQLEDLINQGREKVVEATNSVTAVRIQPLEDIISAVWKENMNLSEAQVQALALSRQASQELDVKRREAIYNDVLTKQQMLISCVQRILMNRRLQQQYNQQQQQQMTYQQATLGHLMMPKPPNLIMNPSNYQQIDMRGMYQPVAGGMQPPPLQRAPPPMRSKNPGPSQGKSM

Compound in the first experiment: COC1=CC=C(C=C1)CN2C=CC3=C2C=C(C=C3)C(=O)NO
In words: log2 fold change, soluble protein after heating vs DMSO (PISA); higher = thermal stabilisation; K562 cells, 10 uM, 30 min; active = over 0.2 and 3.5 SD of the protein, either way, in both replicates (recomputed). The method, boiled down:
(§1)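 K562 cells at 2×10^6 cells/mL were treated with 10 μM compound for 30 min. Aliquots were heated for 3 min across 48°C-58°C, pooled, and extracted in PBS with 0.5% NP-40 at 4°C; soluble protein was the supernatant after 21,000xg for 90 min. Soluble protein was quantified by TMTpro 16plex LC-MS/MS with channel sums equalised, and reported as log2 fold change in thermal stability against DMSO controls, with values from duplicates.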
For BRAF, A0A2R8Y8E0, the log2 fold change is inactive: -0.008.

Consider ATXN2L (UniProt H3BUF6), for which the log2 fold change is inactive: 0.07.

BCL7B (UniProt Q9BQE9): the log2 fold change is inactive: 0.112.

As to BPNT1 (UniProt A6NF51), the log2 fold change is inactive: 0.042.

Compound in another experiment: CON(C)C(=O)N1N=C(c2cc(F)ccc2F)S[C@@]1(CCCN)c1ccccc1 [filanesib]
The experiment is described as above. The method, boiled down:
as §1
As to BAIAP2 isoform 4 (UniProt Q9UQB8), the log2 fold change is inactive: 0.302.

B4GALT2 isoform 3 (UniProt O60909): the log2 fold change is inactive: 0.184.

BCL7A isoform 2 (UniProt Q4VC05): the log2 fold change was inactive: -0.025.

For B3GNT8 (UniProt Q7Z7M8), the log2 fold change was inactive: 0.045.

For AZI2 (UniProt Q9H6S1), the log2 fold change is inactive: 0.006.

Turning to B2M (UniProt P61769), the log2 fold change was inactive: 0.021.

As for ATXN2 (UniProt F8W0B5), the log2 fold change is inactive: 0.225.

With BCL2L11 (UniProt O43521), the log2 fold change was inactive: 0.04.

With BNIP3 (UniProt Q12983), the log2 fold change is inactive: -0.12.

For the target AURKAIP1 (UniProt Q9NWT8), the log2 fold change was inactive: 0.332.

As for BET1L (UniProt Q9NYM9), the log2 fold change was inactive: -0.01.

With BORA (UniProt Q6PGQ7), the log2 fold change is inactive: 0.006.

With BEX4 (UniProt Q9NWD9), the log2 fold change is inactive: 0.017.

B4GALT4 (UniProt O60513): the log2 fold change is inactive: 0.273.

For the target BRD4 (UniProt O60885), the log2 fold change was inactive: -0.068.

Take AUNIP isoform 2 (UniProt Q9H7T9): the log2 fold change is inactive: 0.125.

In the case of BCL7C isoform 2 (UniProt Q8WUZ0), the log2 fold change is inactive: 0.035.

Take BHMT (UniProt Q93088): the log2 fold change was inactive: -0.159.

On to BPIFB1 (UniProt Q8TDL5), for which the log2 fold change is inactive: -0.093.

For the target BLZF1 (UniProt Q9H2G9), the log2 fold change was inactive: 0.281.

On to BCAS1 (UniProt O75363), for which the log2 fold change was inactive: 0.022.

Compound in a further experiment: CO[C@H]1C[C@@H]2CC[C@@H](C)[C@@](O)(O2)C(=O)C(=O)N2CCCC[C@H]2C(=O)O[C@H]([C@H](C)C[C@@H]2CC[C@H](n3cnnn3)[C@H](OC)C2)CC(=O)[C@H](C)/C=C(\C)[C@@H](O)[C@@H](OC)C(=O)[C@H](C)C[C@H](C)/C=C/C=C/C=C/1C [zotarolimus]
Described as above. The method, boiled down: as §1
On to BAIAP2 isoform 4 (UniProt Q9UQB8), for which the log2 fold change was inactive: -0.184.

As for BSCL2 isoform 4 (UniProt Q96G97), the log2 fold change was inactive: 0.076.

As to B2M (UniProt P61769), the log2 fold change is inactive: 0.151.

As for ATXN2 (UniProt F8W0B5), the log2 fold change is inactive: -0.017.

On to ATRX (UniProt P46100), for which the log2 fold change is inactive: 0.042.

Regarding BCDIN3D (UniProt Q7Z5W3), the log2 fold change was inactive: 0.12.

With BCL2L11 (UniProt O43521), the log2 fold change was inactive: -0.006.

AURKAIP1 (UniProt Q9NWT8): the log2 fold change is inactive: 0.033.

Regarding BET1L (UniProt Q9NYM9), the log2 fold change was inactive: 0.012.

On to AVEN (UniProt Q9NQS1), for which the log2 fold change was inactive: -0.07.

Turning to BEX4 (UniProt Q9NWD9), the log2 fold change was inactive: -0.043.

As for BCL2L12 (UniProt Q9HB09), the log2 fold change was inactive: 0.

As for BRD4 (UniProt O60885), the log2 fold change is inactive: -0.253.

In the case of AUNIP isoform 2 (UniProt Q9H7T9), the log2 fold change is inactive: -0.044.

In the case of BCL7C isoform 2 (UniProt Q8WUZ0), the log2 fold change was inactive: 0.072.

Regarding BCL7B (UniProt Q9BQE9), the log2 fold change was inactive: 0.047.

In the case of BLZF1 (UniProt Q9H2G9), the log2 fold change is inactive: 0.183.

Turning to BCAS1 (UniProt O75363), the log2 fold change is inactive: -0.003.

Source of the values: the supplement of paper PMC10849652.
